Data published in patent US5438135A, “Water-soluble tetraazaporphins and fluorochrome for labeling” (Hitachi Chemical Company, priority 1991, dated 1995).

Tested on: DNA having a known base sequence
Experiment: Analysis of the base sequence of DNA (Sanger reaction with labeled primers, DNA sequencer equipped with a semiconductor laser)
Method: A DNA having a known base sequence was used as a sample. Sanger reaction was carried out for the 4 kinds of bases using each of the labeled primers synthesized in Examples 19 to 25 or primers having a tetraazaporphin attached thereto through a linker synthesized in the same manner as in Examples 19 to 25. The DNA fragments thus obtained were separated by electrophoresis in different lanes for the 4 reaction systems, respectively, and analyzed by means of a DNA sequencer equipped with a semiconductor laser. The reaction systems contained a nonionic surfactant as an addition if necessary.
Each of the phthalocyanines disclosed in International Application Number PCT/US89/03807 was attached to the oligonucleotide primer obtained in Example 18, according to the methods of grafted patents and the methods described in Examples 19 to 25 of this invention. Using each of the phthalocyanine-attached oligonucleotides thus obtained, the base sequence of DNA was analyzed in the same manner as in Example 26.

[1] = Triton X-100, semiconductor laser 770 nm
[2] = Triton X-100, semiconductor laser 780 nm
[3] = no nonionic surfactant (--), semiconductor laser 770 nm

| Substance | Number of bases of DNA [2] | Precision [2] | further results |
| --- | --- | --- | --- |
| sodium zinc-naphthalocyaninetetracarboxylate [Illustrative compound No. 126] |  |  | Number of bases of DNA [1]: 350; Precision [1]: 99.7% |
| bis(tributylsiloxy)silicon-tetraphenylthioquinoxalocyanineoctacarboxylic acid monohydroxypropyl ester heptasodium salt [Example 13] | 340 | 99.4% |  |
| sodium bis(tributylsiloxy)silicon-tetraphenylthionaphthalocyanine octacarboxylate [Illustrative compound No. 1] | 380 | 99.7% |  |
| sodium bis(tripropylsiloxy)silicon-tetraethylthionaphthalocyaninetetracarboxylate [Illustrative compound No. 16] |  |  | Number of bases of DNA [3]: 330; Precision [3]: 99.7% |
